Experimental data: patent US20240239816A1, “BORONO-PHENYLALANINE DERIVATIVE” (STELLA PHARMA CORPORATION, priority 2021, published 2024)
For at least one compound, name, drawing or mass did not settle the structure.

Experiments:
[1] = system: human LAT1 and LAT2 highly expressing HEK 293 cell lines; assay: Evaluation of LAT1 and LAT2-selective uptake; assay type: cell-based; settings: (uptake in LAT1 cells / L-BPA uptake in LAT1 cells)/(uptake in LAT2 cells / L-BPA uptake in LAT2 cells); substrate concentration 0.1 mM; relative to L-BPA on the same day
Experimental: HEK 293 cells that stably highly express human LAT1 and LAT2 respectively were prepared according to the method described in the article of Khunweeraphong, N et al. (Journal of Pharmacology Science, 2012, vol. 119, pp 368-380). A shuttle vector DNA (LAT1: EX-H 4509-M02, LAT2: EX-U0514-M02, manufactured by GeneCopoeia) having ampicillin and neomycin resistance markers and having full-length cDNA of human LAT1 or LAT2 inserted under the promoter of cytomegalovirus (CMV) was constructed. This vector was transfected into HEK 293 cells by a method using Lipofectamine (registered trademark) 2000 (Invitrogen) in accordance with the manufacturer's instructions. […]
As a method for evaluating cell uptake, the same method as in the article of Khunweeraphong, N et al. (Journal of Pharmacology Science, 2012, vol. 119, pp 368-380) was used. […] The reacted cells were collected with 0.05% Tween 20 and the concentration of the 4-borono-phenylalanine derivative in the cell fluid was determined. Quantification of the 4-borono-phenylalanine derivative in cells was performed in accordance with the method described in the article of Hattori, Y, et al. (Sensors 2017, 17, 2436), using 2-(2-hydroxyphenyl)pyridine (boron sensor 5) as a boron sensor. […]

[2] = system: human LAT1 or LAT2 expressing HEK 293 cell clone; assay: Preparation of human LAT1 and LAT2 highly expressing HEK 293 cell lines (L-BPA uptake of selected clone); assay type: cell-based; settings: stably expressing cell clone selected with 0.9 mg/mL Geneticin

Question: How did the LAT1 selectivity [1] turn out when `N[C@@H](Cc1ncc(B(O)O)cc1F)C(=O)O` [Example 48, (S)-2-amino-3-(5-borono-3-fluoropyridin-2-yl)propanoic acid] was run?
Answer: twice or more

Question: Which “enhancement of uptake of L-BPA compared with HEK 293 cells before transfection” value [2] does the source give for `N[C@@H](Cc1ccc(B(O)O)cc1)C(=O)O` [L-BPA, L-boronophenylalanine] here?
Answer: 2 to about 5
